Reference: PubChem BioAssay AID2685 (National Center for Advancing Translational Sciences (NCATS), 2010)
Some of the results follow. Further columns of the screen follow, without active or inactive calls. Most of these compounds were active or inconclusive in the main read-out, so they are no random draw. Potencies come from curve fits of mixed quality, noted in brackets.

Assay: qHTS Assay for Lipid Storage Modulators in Drosophila S3 Cells;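 as to cell number change: cells counted by Cell Tracker Red CMTPX staining in the red channel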
Conditions: BODIPY lipid droplet fluorescence, 18-24 h; for cell number change: measured here: cell count max response, cells fed with added oleic acid
Method in brief: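 Drosophila S3 cells got compounds at several concentrations plus oleic acid (400 uM solution). Laser-scanning cytometry with 488 nm excitation read lipid droplets at 500-530 nm and cells at 575-640 nm. Percent activity was relative to 20 uM Triacsin C.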

[1] = measured here: cell number channel AC50, cells fed with added oleic acid
[2] = measured here: lipid fluorescence (Fed channel) AC50, cells fed with added oleic acid

Row | SMILES | cell number change | AC50 [1] | AC50 [2]
1 | CSc1sccc1/C=N/O | -50.8% | 25.9 µM [falling, single point] | 29.1 µM [falling, single point]
2 | CCc1cc2c(=O)n(CC(C)C)cnc2s1 | 15.1% |  | 1.84 µM [falling, partial curve, poor fit]
3 | Fc1ccc(-c2cnc3n2CCCCC3)cc1 |  | 6.51 µM [rising, single point] | 6.51 µM [rising, single point]
4 | CCOC(=O)C1=C(COC(=O)[C@H](C)NS(=O)(=O)c2ccc(NC(C)=O)cc2)NC(=O)NC1C (some centres undefined) | -23.5% |  | 32.6 µM [falling, single point]
5 | O=C(C[n+]1ccc(-c2nnc3n2CCCCC3)cc1)c1ccc(Cl)cc1 | -11.7% |  | 
6 | CCc1ccc(Oc2coc3cc(OCC(=O)Nc4cc(C)ccc4C)ccc3c2=O)cc1 | -31.8% | 1.64 µM [falling, full curve] | 1.64 µM [falling, full curve]
7 | O=C(CNC(=O)c1ccccc1)Oc1ccc([N+](=O)[O-])cc1 | 23.4% | 0.00411 µM [rising, full curve, poor fit] | 0.58 µM [rising, single point]
8 | CCc1ccc(NC(=O)c2c(C(=O)Nc3ccccc3)sc3nc(C)cc(=O)n23)cc1 | -67.8% | 2.06 µM [falling, partial curve] | 5.8 µM [falling, single point]
9 | O=C(NCc1nnc(SCc2ccccc2)n1-c1ccccc1)C12CC3CC(CC(C3)C1)C2 | -20% |  | 18.4 µM [falling, single point]
10 | CCOc1cc(CNCCO)cc(Br)c1OCc1cccs1 | -20.3% |  | 8.2 µM [falling, single point]
11 | N#Cc1c(Sc2ncc(C(F)(F)F)cc2Cl)nsc1C/C=N\OCc1c(F)cccc1Cl | -17.2% |  | 29.1 µM [falling, single point]
12 | COc1cc(C(=O)NCC(=O)NNC(=O)C2COc3ccccc3O2)cc(OC)c1OC (centres undefined) | -0.429% |  | 0.00461 µM [falling, full curve, poor fit]
13 | CCC(C)NC(=O)CN(c1ccc(Cl)c(Cl)c1)S(C)(=O)=O (centres undefined) | -14.8% |  | 29.1 µM [falling, single point]
14 | CCCC(=O)Nc1cc(=O)[nH]c2ncnn12 | -1.5% |  | 
15 | Cc1cc(C(=O)OCC(=O)Nc2c(F)cccc2F)c(C)n1-c1ccccc1 | -35.1% |  | 
16 | COC(=O)c1ccc(C)c(NC(=O)C2COc3ccccc3O2)c1 (centres undefined) | -14.8% |  | 2.06 µM [rising, full curve, poor fit]
17 | Cc1cc2c(c(=O)n1CCCn1ccnc1)C(c1ccco1)C(C#N)=C(N)O2 (centres undefined) |  | 5.17 µM [rising, single point] | 5.17 µM [falling, single point]
18 | Cc1cn(C2CC3OCC3O2)c(=O)[nH]c1=O (centres undefined) | -4.77% |  | 29.1 µM [falling, single point]
19 | COc1ccc(CC(=O)Nc2ccc(C(=O)Nc3nccs3)cc2)cc1OC | 5.41% |  | 9.2 µM [rising, single point]
20 | Cn1c(=O)c2[nH]c(N=Nc3ccc(N)cc3N)nc2n(C)c1=O | -4.27% | 1.16 µM [falling, full curve] | 

Four compounds picked at random from the list so far, as already listed:
Row | SMILES | cell number change | AC50 [1] | AC50 [2]
9 | O=C(NCc1nnc(SCc2ccccc2)n1-c1ccccc1)C12CC3CC(CC(C3)C1)C2 | -20% |  | 18.4 µM [falling, single point]
20 | Cn1c(=O)c2[nH]c(N=Nc3ccc(N)cc3N)nc2n(C)c1=O | -4.27% | 1.16 µM [falling, full curve] | 
8 | CCc1ccc(NC(=O)c2c(C(=O)Nc3ccccc3)sc3nc(C)cc(=O)n23)cc1 | -67.8% | 2.06 µM [falling, partial curve] | 5.8 µM [falling, single point]
1 | CSc1sccc1/C=N/O | -50.8% | 25.9 µM [falling, single point] | 29.1 µM [falling, single point]

(cont.)

Row | SMILES | cell number change | AC50 [1] | AC50 [2]
21 | Cc1ccc(C)c(S(=O)(=O)N2CCCOC2CNC(=O)C(=O)NCCN2CCOCC2)c1 (centres undefined) | 18.3% |  | 25.9 µM [rising, single point]
22 | O=C(Nc1ccc(-n2ccnc2P(=O)(O)c2ccccc2)cc1)c1ccccc1Cl | -12.9% | 0.00411 µM [falling, full curve, poor fit] | 1.84 µM [falling, partial curve]
23 | CN(C(=O)c1ccc(COc2ccccc2Br)o1)c1ccccc1 | 17.5% |  | 0.58 µM [falling, single point]
24 | CCOC(=O)/C=C1\SCC(=O)N1CC(=O)Nc1ccccc1OC(F)F | 3.89% |  | 0.411 µM [rising, partial curve, poor fit]
25 | COc1cc(-c2nnc3sc(-c4ccco4)nn23)cc(OC)c1OC | 4.3% |  | 
26 | CCOP(=O)(OCC)c1nc(-c2cccc3ccccc23)oc1NCc1ccccc1 | 28.5% |  | 
27 | Cc1nc2ccc(S(=O)(=O)Nc3ccc(-c4nc5cccnc5s4)cc3)cc2s1 | 38.5% | 5.8 µM [rising, partial curve] | 0.291 µM [rising, full curve, poor fit]
28 | Cn1c(COc2ccc(Cl)cc2)nnc1SCC(=O)Nc1ccc2c(c1)CCC2 | -50.1% | 29.1 µM [falling, single point] | 25.9 µM [falling, partial curve]
29 | Cc1ccc(C2CC(=O)NC(SCc3ccccc3)=C2C#N)o1 (centres undefined) | -0.141% |  | 6.51 µM [rising, full curve, poor fit]
30 | Cc1cc(C)c(NC(=O)Cn2nnc(C(=O)Nc3ccc(F)cc3F)c2N)c(C)c1 | 5.07% |  | 0.517 µM [rising, partial curve, poor fit]
31 | CCSc1oc(-c2ccco2)nc1S(=O)(=O)c1ccc(F)cc1 |  | 2.06 µM [rising, partial curve] | 
32 | O=C(COc1ccc(Cl)cc1)NCc1n[nH]c(=O)c2ccccc12 | -6.48% |  | 14.6 µM [rising, partial curve]
33 | OCCC1CN(Cc2cccc(O)c2)CCN1CCc1ccccc1 (centres undefined) | -6.45% | 4.61 µM [falling, single point] | 
34 | O=C(Nc1ccc2c(c1)OCO2)C(c1ccccc1)N1CCCCC1 (centres undefined) | 30.3% | 0.00411 µM [rising, full curve, poor fit] | 6.51 µM [rising, partial curve, poor fit]
35 | CN(Cc1ccccc1)C(=O)CC(c1ccccc1)c1cc(Cl)ccc1O (centres undefined) | -19.7% |  | 0.411 µM [falling, full curve, poor fit]
36 | Cc1ccc(C(=O)CN(CCC(=O)O)S(=O)(=O)c2ccc([N+](=O)[O-])cc2)cc1 | 12.7% |  | 29.1 µM [rising, single point]
37 | O=C1C2CCc3ccccc3C2N1c1ccccc1 (centres undefined) | 13.3% | 1.16 µM [falling, single point] | 1.16 µM [falling, single point]
38 | CC(=O)Nc1ccc(S(=O)(=O)Nc2cc(C)cn(Cc3ccc(C)cc3)c2=O)cc1 | 11.7% |  | 0.103 µM [falling, full curve, poor fit]
39 | CCC1=Nc2cc(C(=O)NCCCOC(C)C)ccc2Sc2ccccc21 |  |  | 23.1 µM [rising, single point]
40 | O=C(NNC(=O)c1ccc(SCC2CCCO2)c([N+](=O)[O-])c1)c1ccc(F)cc1 (centres undefined) | 4.74% |  | 

Row | SMILES | cell number change | AC50 [1] | AC50 [2]
41 | Cc1cccc(N(C(=O)CCC(=O)Nc2cc(C)on2)C(C(=O)NC2CCCC2)c2cccnc2)c1 (centres undefined) | -37.2% | 20.6 µM [falling, single point] | 
42 | Cc1ccc(-c2noc(CCC(=O)N(C)c3ccccc3C)n2)cc1 | 43.7% | 0.92 µM [rising, partial curve, poor fit] | 5.17 µM [rising, single point]
43 | O=C(COC(=O)Cc1ccc(Br)cc1)NCC1CCCCC1 | 14.8% | 0.231 µM [falling, single point] | 14.6 µM [rising, partial curve, poor fit]
44 | Cc1ccc(CNC(=O)c2cnccn2)cc1 |  |  | 10.3 µM [rising, partial curve, poor fit]
45 | Cc1cc(OCCOc2cccc3cccnc23)c(C)cc1Cl | -9.88% |  | 0.291 µM [rising, full curve, poor fit]
46 | C=CCNC(=O)CSc1nnc(-c2ccccc2Cl)n1-c1c(C)n(C)n(-c2ccccc2)c1=O | 15.3% |  | 0.731 µM [falling, full curve]
47 | O=C(NCC(=O)N1CCN(S(=O)(=O)c2ccc3c(c2)OCCO3)CC1)c1ccccc1Cl | 3.88% |  | 0.103 µM [rising, full curve, poor fit]
48 | O=C(COC(=O)c1cnc(Cl)c(Cl)c1)NCc1ccco1 | -55.9% |  | 
49 | C[C@H](NC(=O)c1nc[nH]c1C(=O)NCC(=O)OCc1ccccc1)c1ccccc1 | 15% |  | 
50 | CC(C)c1ccc(O)c(NC(=O)c2cccnc2)c1 | 2.52% |  | 
51 | CC(=O)Nc1cccc(-c2cnc3ccccc3n2)c1 | 0.965% |  | 0.164 µM [rising, full curve, poor fit]
52 | O=C(Nn1cnnc1)c1ccc(OC(F)(F)C(F)C(F)(F)F)cc1 (centres undefined) | 17.2% |  | 29.1 µM [rising, single point]
53 | CC(C)(C)OC(=O)NNC(=O)C12CC3CC(CC(C3)C1)C2 | 45% |  | 
54 | CSc1nsc(SCC(=O)Nc2cccc(NC(C)=O)c2)n1 | 0.87% |  | 0.731 µM [rising, partial curve, poor fit]
55 | C/C(=N\NC(=O)c1ccc(Cn2cc(Br)cn2)o1)c1cccc(NC(=O)C(C)(C)C)c1 | 37.5% | 10.3 µM [rising, partial curve] | 9.2 µM [rising, partial curve]
56 | NS(=O)(=O)c1ccc(NC(=S)NNC(=O)CCC(=O)Nc2ccccc2Cl)cc1 | 23.7% |  | 1.46 µM [rising, partial curve, poor fit]
57 | Cc1ccc(C(=O)Nc2c(C)cc(C)c3cccnc23)cc1 | -4.23% |  | 0.00461 µM [falling, full curve, poor fit]
58 | C=CCn1c(SCC(=O)Nc2cccc3ccccc23)nc(O)c(CC)c1=O |  |  | 16.4 µM [rising, partial curve]
